Laboratory results: the supplement of paper PMC12872613
Counter-ions that a name gives are not always drawn. The list shows a part of the results. No stated cut-off is given here; in the data, active = 0.7 or more and inactive = the rest. Repeats are few or missing, and single values can be far off.

system: MiaPaCa-2 CLSA-25; experiment: cell death relative to DMSO vehicle (fraction); higher = more cytotoxic; settings: 5 µM; treatment time 48 h; medium cystine 25 µM

SMILES | cell death
C[C@@H]1O[C@@H](O[C@H]2[C@H](Oc3cc(O)c(C(=O)CCc4ccc(O)cc4)c(O)c3)O[C@H](CO)[C@@H](O)[C@@H]2O)[C@H](O)[C@H](O)[C@H]1O [Naringin dihydrochalcone] | inactive: -0.00428
CC(=O)Oc1cc(C(F)(F)F)ccc1C(=O)O [Triflusal] | inactive: 0.00508
O=C1c2ccccc2C(=O)C1c1ccc(Cl)cc1 [chlophenadione] | inactive: 0.119
Cc1nc(-c2ccc(OCC(C)C)c(C#N)c2)sc1C(=O)O [Febuxostat] | active: 0.712
N[C@@H](Cc1c[nH]cn1)C(=O)O [histidine] | inactive: 0.109
CCCc1nc(C)c2c(=O)nc(-c3cc(S(=O)(=O)N4CCN(CC)CC4)ccc3OCC)[nH]n12 [Vardenafil hydrochloride trihydrate] | inactive: 0.072
CC(=O)N1CCN(c2ccc(OCC3COC(Cn4ccnc4)(c4ccc(Cl)cc4Cl)O3)cc2)CC1 (centres undefined) [Ketoconazole] | inactive: 0.633
CCN(CC)CCCC(C)Nc1c2ccc(Cl)cc2nc2ccc(OC)cc12 (centres undefined) [Quinacrine dihydrochloride] | inactive: 0.557
O=C(NO)c1cnc(NC2(c3ccccc3)CC2)nc1 | inactive: 0.679
C[C@H](CCC(=O)NCCS(=O)(=O)O)[C@H]1CC[C@H]2[C@@H]3[C@H](O)C[C@@H]4C[C@H](O)CC[C@]4(C)[C@H]3C[C@H](O)[C@]12C [Taurocholic acid sodium salt hydrate] | inactive: 0.152
C[C@](N)(Cc1ccc(O)c(O)c1)C(=O)O [L-(-)-α-Methyldopa] | inactive: 0.00535
Oc1cc(O)c2c(c1)O[C@H](c1ccc(O)c(O)c1)[C@@H](O)C2 [(+)-Catechin Hydrate] | inactive: 0.267
CC(C)(O)CS(=O)(=O)Nc1ccc2c(c1)CCN(C(=O)COc1cccnc1)C2 [Nampt-IN-1] | active: 0.72
CC(C)(CO)[C@@H](O)C(=O)NCCC(=O)O [D-Pantothenic acid sodium salt] | inactive: 0.464

Part of the list above in order of SMILES length, rising.
SMILES | cell death
Cc1nc(-c2ccc(OCC(C)C)c(C#N)c2)sc1C(=O)O [Febuxostat] | active: 0.712
Oc1cc(O)c2c(c1)O[C@H](c1ccc(O)c(O)c1)[C@@H](O)C2 [(+)-Catechin Hydrate] | inactive: 0.267
CCCc1nc(C)c2c(=O)nc(-c3cc(S(=O)(=O)N4CCN(CC)CC4)ccc3OCC)[nH]n12 [Vardenafil hydrochloride trihydrate] | inactive: 0.072
